Consider 3 molecules from publication PMC3859662.

Assay [1] concerns the target T1, necdin (full-length, yeast two-hybrid fusion) (mouse) (UniProt P25233).
T1 sequence: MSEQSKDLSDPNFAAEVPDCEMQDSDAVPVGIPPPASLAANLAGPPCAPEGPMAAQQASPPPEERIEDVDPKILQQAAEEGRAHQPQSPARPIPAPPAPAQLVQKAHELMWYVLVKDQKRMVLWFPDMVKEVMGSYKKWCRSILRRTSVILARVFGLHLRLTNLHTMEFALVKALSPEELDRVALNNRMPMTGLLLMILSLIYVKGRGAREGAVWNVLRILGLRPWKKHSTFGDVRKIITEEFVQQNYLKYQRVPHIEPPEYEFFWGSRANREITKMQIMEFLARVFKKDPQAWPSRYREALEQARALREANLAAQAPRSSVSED
The assay is described as follows: two-hybrid; deletion mapping: deleted cystin constructs (prey) co-transformed with full-length necdin (bait); selective SD/-Ade-His-Leu-Trp plates.

For a further assay, the target named is GST alone. The assay is described as follows: pull-down; pCMV-GST-cystin (or GST alone) and pCMV-myc-necdin co-transfected into COS-7 cells; lysate incubated with immobilized glutathione beads overnight at 4 °C; eluted with 100 mM glutathione; blot with myc antibody.

Results are given in words; binding and its absence hold for the method and conditions named. For part of these data: Binding can be weak; no strength is given. Sequences can lack the tags named with a protein. For part of these data: In cells and extracts the contact can be indirect.

For “carboxy terminal fragment of cystin (mouse) (domain or fragment)”, the binding entry in assay [1] is listed as “binds”.

Regarding “cystin-C25 (cystin with the C-terminal 25 amino acids deleted) (mouse) (domain or fragment)”, in assay [1], the binding entry is on record as “no binding”.

B1: myc-necdin (full-length necdin in pCMV-myc) (protein, UniProt P25233 1-325)
chain: MSEQSKDLSDPNFAAEVPDCEMQDSDAVPVGIPPPASLAANLAGPPCAPEGPMAAQQASPPPEERIEDVDPKILQQAAEEGRAHQPQSPARPIPAPPAPAQLVQKAHELMWYVLVKDQKRMVLWFPDMVKEVMGSYKKWCRSILRRTSVILARVFGLHLRLTNLHTMEFALVKALSPEELDRVALNNRMPMTGLLLMILSLIYVKGRGAREGAVWNVLRILGLRPWKKHSTFGDVRKIITEEFVQQNYLKYQRVPHIEPPEYEFFWGSRANREITKMQIMEFLARVFKKDPQAWPSRYREALEQARALREANLAAQAPRSSVSED
Consider B1, for which the binding result with GST alone is “no binding”.
